US20230302140A1, “CONJUGATE OF A SINGLE DOMAIN ANTIBODY, A SAPONIN AND AN EFFECTOR MOLECULE, PHARMACEUTICAL COMPOSITION COMPRISING THE SAME, THERAPEUTIC USE OF SAID PHARMACEUTICAL COMPOSITION” (SAPREME TECHNOLOGIES B.V., priority 2020, published 2023)
For at least one compound, name, drawing or mass did not settle the structure. Some of these results come from one statement about several compounds together.

Tests used:
Experiment in all cases: Cell killing (MTS cell viability) assay
Assay type in all cases: cell-based, human
JIMT-1 cells = test system: JIMT-1 cells
Protocol: (§1) Cells were seeded in a 96 well plate at 5.000-1 0.000 c/w in 100 µL/well and incubated overnight at 37° C. […] The media was removed from the cell culture plate and replaced by 180 µL culture media, followed by the addition of 20 µL treatment-mix/well. […] In the case that endosomal acidification inhibitors (chloroquine (Sigma Aldrich) or bafilomycin A1 (Enzo Life Sciences)) were used, the cell culture media in step 1 of treatment was replaced by 180 µL media containing 1 µM chloroquine or 0.2 µM bafilomycin A1. The plate was incubated for 1 hour at 37° C., before the 10x treatment-mix samples were added. The remaining incubation and treatment steps were performed according to standard procedures known in the field.
(§2) After treatment the cells were incubated for 72 hr at 37° C. before the cell viability was determined by a MTS-assay, performed according to the manufacturer’s instruction (CellTiter 96® AQueous One Solution Cell Proliferation Assay, Promega). Briefly, the MTS solution was diluted 20x in DMEM without phenol red (PAN-Biotech GmbH) supplemented with 10% FBS (PAN-Biotech GmbH). The cells were washed once with 200 µL PBS per well, after which 100 µL diluted MTS solution was added per well. The plate was incubated for approximately 20-30 minutes at 37° C. Subsequently, the optical density at 492 nm was measured on a Thermo Scientific Multiskan FC plate reader (Thermo Scientific). For quantification the background signal of ‘medium only’ wells was subtracted from all other wells, before the ratio of […].

HeLa cells = test system: HeLa cells
Protocol: as §1, §2

A2058 cells = test system: A2058 cells
Protocol: (§3) After treatment the cells were incubated for 72 hr at 37° C. before the cell viability was determined by a MTS-assay, performed according to the manufacturer’s instruction (CellTiter 96® AQueous One Solution Cell Proliferation Assay, Promega). Briefly, the MTS solution was diluted 20× in DMEM without phenol red (PAN-Biotech GmbH) supplemented with 10% FBS. The cells were washed once with 200 µL/PBS well, after which 100 µL diluted MTS solution was added/well. The plate was incubated for approximately 20-30 minutes at 37° C. Subsequently, the OD at 492 nm was measured on a Thermo Scientific Multiskan FC plate reader (Thermo Scientific). For quantification the background signal of ‘medium only’ wells was subtracted from all other wells, before the cell viability percentage of treated/untreated cells was calculated, by dividing the background corrected signal of treated wells over the background corrected signal of the untreated wells (x 100).
as §1, §2

MDA-MB-468 cells = test system: MDA-MB-468 cells
Protocol: as §3, §1, §2

[1] = +10 pM EGF-dianthin (fixed), calculated on concentration SO1861
[2] = +10 pM cetuximab-saporin (fixed), calculated on concentration SO1861
[3] = +50 pM trastuzumab-saporin (fixed), Ex.9/Table A6: calculated on concentration SO1861
[4] = +1 pM or 5 pM bivalentVHH-EGFR-dianthin (fixed)

CC(=O)O[C@H]1[C@H](O[C@@H]2OC[C@@H](O)[C@H](O)[C@H]2O)[C@@H](O)[C@H](O[C@@H]2[C@H](O)[C@@H](O[C@@H]3O[C@@H](C)[C@H](O[C@@H]4OC[C@@H](O)[C@H](O[C@@H]5O[C@H](CO)[C@@H](O)[C@H](O)[C@H]5O)[C@H]4O)[C@@H](O)[C@H]3O)[C@H](OC(=O)[C@]34CCC(C)(C)C[C@H]3C3=CC[C@@H]5[C@@]6(C)CC[C@H](O[C@@H]7O[C@H](C(=O)O)[C@@H](O)[C@H](O[C@@H]8OC[C@@H](O)[C@H](O)[C@H]8O)[C@H]7O[C@@H]7O[C@H](CO)[C@H](O)[C@H](O)[C@H]7O)[C@@](C)(C=O)[C@@H]6CC[C@@]5(C)[C@]3(C)C[C@H]4O)O[C@@H]2C)O[C@@H]1C [SO1861]
IC50 (JIMT-1 cells; +5 pM cetuximab-saporin (fixed), Ex.9/Table A6: calculated on concentration SO1861): > 1 µM | IC50 cell killing (JIMT-1 cells; [1]): > 1.00 0 nM | IC50 (JIMT-1 cells; +50 pM trastuzumab-saporin (fixed), calculated on concentration SO1861): > 1 µM | IC50 cell killing (HeLa cells; [1]): > 1.00 0 nM | IC50 (HeLa cells; [2]): 1 µM | IC50 (HeLa cells; [3]): > 1 µM | IC50 (A2058 cells; [4]): > 1 µM | IC50 (A2058 cells; [2]): > 1 µM | IC50 (A2058 cells; [3]): > 1 µM | IC50 (MDA-MB-468 cells; [4]): 1 µM | IC50 cell killing (MDA-MB-468 cells; +10 pM EGF-dianthin (fixed), Table A6: calculated on concentration SO1861): > 1.00 0 nM
